According to PMC5323046:
No constants are given. Whether binding was seen depends on the method and setting. In cells and extracts the contact can be indirect. These calls come from enrichment with a bait or labelling near it, and not all partners need be listed. Sequences can lack the tags named with a protein. Values belong to the binder of their own block, whether it stands above or below them.

Legend:
[1] = target: T1, HA-tagged DENND2C (DENN domain containing 2C) (human) (UniProt Q68D51); assay: affinity purification with mass spectrometry; 293T-REx cells inducibly expressing N-terminally HA-tagged baits; lysis in MCLB (50 mM Tris pH 7.4, 150 mM NaCl, 0.5% NP40); anti-HA-agarose, elution with HA peptide, trypsin, LC-MS/MS; CompPASS, HCIPs with WDN >=1 and APSM >=2
T1 sequence: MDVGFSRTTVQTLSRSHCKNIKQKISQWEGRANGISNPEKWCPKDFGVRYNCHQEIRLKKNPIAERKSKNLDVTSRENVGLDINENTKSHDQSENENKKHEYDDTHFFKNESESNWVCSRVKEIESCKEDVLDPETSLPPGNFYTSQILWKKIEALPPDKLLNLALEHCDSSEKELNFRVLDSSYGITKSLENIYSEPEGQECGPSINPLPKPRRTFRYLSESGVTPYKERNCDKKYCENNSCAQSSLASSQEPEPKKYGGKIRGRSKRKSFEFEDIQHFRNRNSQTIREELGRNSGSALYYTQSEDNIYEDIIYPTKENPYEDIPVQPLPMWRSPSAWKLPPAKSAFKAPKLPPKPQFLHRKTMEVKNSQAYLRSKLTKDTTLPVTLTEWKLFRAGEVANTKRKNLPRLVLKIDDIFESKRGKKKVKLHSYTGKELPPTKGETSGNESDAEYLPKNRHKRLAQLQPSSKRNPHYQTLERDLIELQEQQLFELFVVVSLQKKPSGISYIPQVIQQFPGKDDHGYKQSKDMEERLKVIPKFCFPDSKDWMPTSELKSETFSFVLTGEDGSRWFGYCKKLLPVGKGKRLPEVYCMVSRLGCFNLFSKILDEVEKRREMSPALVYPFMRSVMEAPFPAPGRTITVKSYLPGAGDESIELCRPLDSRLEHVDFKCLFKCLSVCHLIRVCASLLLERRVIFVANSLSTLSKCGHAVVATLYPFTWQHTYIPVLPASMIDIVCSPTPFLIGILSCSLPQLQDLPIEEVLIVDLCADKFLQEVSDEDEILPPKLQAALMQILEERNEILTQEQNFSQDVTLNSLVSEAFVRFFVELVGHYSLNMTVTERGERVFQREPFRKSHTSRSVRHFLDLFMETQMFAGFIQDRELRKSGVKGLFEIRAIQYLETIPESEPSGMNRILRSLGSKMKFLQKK

HA-tagged ATG13 (human) = target: T2, HA-tagged ATG13 (human) (UniProt O75143); assay: affinity purification with mass spectrometry + SEC; HA-IP of HA-ATG13 from 293T-REx cells, HA-peptide eluate on Superose 6 10/300 GL, fractions analysed by mass spectrometry; DMSO or 250 nM Torin1 for 2 hr
T2 sequence: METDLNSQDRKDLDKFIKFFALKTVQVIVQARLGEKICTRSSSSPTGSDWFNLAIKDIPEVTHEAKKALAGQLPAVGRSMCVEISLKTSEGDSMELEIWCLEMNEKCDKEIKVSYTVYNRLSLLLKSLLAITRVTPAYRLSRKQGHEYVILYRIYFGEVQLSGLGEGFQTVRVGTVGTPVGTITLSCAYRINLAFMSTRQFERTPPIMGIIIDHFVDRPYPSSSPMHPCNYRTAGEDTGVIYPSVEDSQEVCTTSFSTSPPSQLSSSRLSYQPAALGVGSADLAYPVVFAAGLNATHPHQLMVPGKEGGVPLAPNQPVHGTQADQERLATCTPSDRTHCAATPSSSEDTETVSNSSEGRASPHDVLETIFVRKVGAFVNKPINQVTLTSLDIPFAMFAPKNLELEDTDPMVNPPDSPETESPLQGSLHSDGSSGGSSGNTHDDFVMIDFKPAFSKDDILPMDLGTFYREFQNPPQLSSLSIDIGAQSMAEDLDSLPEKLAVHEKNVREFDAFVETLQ

binding [1]: binds
B1: ARHGAP26 (protein, UniProt Q9UNA1 1-814)
chain: MGLPALEFSDCCLDSPHFRETLKSHEAELDKTNKFIKELIKDGKSLISALKNLSSAKRKFADSLNEFKFQCIGDAETDDEMCIARSLQEFATVLRNLEDERIRMIENASEVLITPLEKFRKEQIGAAKEAKKKYDKETEKYCGILEKHLNLSSKKKESQLQEADSQVDLVRQHFYEVSLEYVFKVQEVQERKMFEFVEPLLAFLQGLFTFYHHGYELAKDFGDFKTQLTISIQNTRNRFEGTRSEVESLMKKMKENPLEHKTISPYTMEGYLYVQEKRHFGTSWVKHYCTYQRDSKQITMVPFDQKSGGKGGEDESVILKSCTRRKTDSIEKRFCFDVEAVDRPGVITMQALSEEDRRLWMEAMDGREPVYNSNKDSQSEGTAQLDSIGFSIIRKCIHAVETRGINEQGLYRIVGVNSRVQKLLSVLMDPKTASETETDICAEWEIKTITSALKTYLRMLPGPLMMYQFQRSFIKAAKLENQESRVSEIHSLVHRLPEKNRQMLQLLMNHLANVANNHKQNLMTVANLGVVFGPTLLRPQEETVAAIMDIKFQNIVIEILIENHEKIFNTVPDMPLTNAQLHLSRKKSSDSKPPSCSERPLTLFHTVQSTEKQEQRNSIINSSLESVSSNPNSILNSSSSLQPNMNSSDPDLAVVKPTRPNSLPPNPSPTSPLSPSWPMFSAPSSPMPTSSTSSDSSPVRSVAGFVWFSVAAVVLSLARSSLHAVFSLLVNFVPCHPNLHLLFDRPEEAVHEDSSTPFRKAKALYACKAEHDSELSFTAGTVFDNVHPSQEPGWLEGTLNGKTGLIPENYVEFL

binding (HA-tagged ATG13 (human)): binds
B2: endogenous WDR41 (protein, UniProt Q9HAD4 1-459)
chain: MLRWLIGGGREPQGLAEKSPLQTIGEEQTQNPYTELLVLKAHHDIVRFLVQLDDYRFASAGDDGIVVVWNAQTGEKLLELNGHTQKITAIITFPSLESCEEKNQLILTASADRTVIVWDGDTTRQVQRISCFQSTVKCLTVLQRLDVWLSGGNDLCVWNRKLDLLCKTSHLSDTGISALVEIPKNCVVAAVGKELIIFRLVAPTEGSLEWDILEVKRLLDHQDNILSLINVNDLSFVTGSHVGELIIWDALDWTMQAYERNFWDPSPQLDTQQEIKLCQKSNDISIHHFTCDEENVFAAVGRGLYVYSLQMKRVIACQKTAHDSNVLHVARLPNRQLISCSEDGSVRIWELREKQQLAAEPVPTGFFNMWGFGRVSKQASQPVKKQQENATSCSLELIGDLIGHSSSVEMFLYFEDHGLVTCSADHLIILWKNGERESGLRSLRLFQKLEENGDLYLAV

binding [1]: binds
B3: FYCO1 (protein, UniProt Q9BQS8 1-1478)
chain: MASTNAESQLQRIIRDLQDAVTELSKEFQEAGEPITDDSTSLHKFSYKLEYLLQFDQKEKATLLGNKKDYWDYFCACLAKVKGANDGIRFVKSISELRTSLGKGRAFIRYSLVHQRLADTLQQCFMNTKVTSDWYYARSPFLQPKLSSDIVGQLYELTEVQFDLASRGFDLDAAWPTFARRTLTTGSSAYLWKPPSRSSSMSSLVSSYLQTQEMVSNFDLNSPLNNEALEGFDEMRLELDQLEVREKQLRERMQQLDRENQELRAAVSQQGEQLQTERERGRTAAEDNVRLTCLVAELQKQWEVTQATQNTVKELQTCLQGLELGAAEKEEDYHTALRRLESMLQPLAQELEATRDSLDKKNQHLASFPGWLAMAQQKADTASDTKGRQEPIPSDAAQEMQELGEKLQALERERTKVEEVNRQQSAQLEQLVKELQLKEDARASLERLVKEMAPLQEELSGKGQEADQLWRRLQELLAHTSSWEEELAELRREKKQQQEEKELLEQEVRSLTRQLQFLETQLAQVSQHVSDLEEQKKQLIQDKDHLSQQVGMLERLAGPPGPELPVAGEKNEALVPVNSSLQEAWGKPEEEQRGLQEAQLDDTKVQEGSQEEELRQANRELEKELQNVVGRNQLLEGKLQALQADYQALQQRESAIQGSLASLEAEQASIRHLGDQMEASLLAVRKAKEAMKAQMAEKEAILQSKEGECQQLREEVEQCQQLAEARHRELRALESQCQQQTQLIEVLTAEKGQQGVGPPTDNEARELAAQLALSQAQLEVHQGEVQRLQAQVVDLQAKMRAALDDQDKVQSQLSMAEAVLREHKTLVQQLKEQNEALNRAHVQELLQCSEREGALQEERADEAQQREEELRALQEELSQAKCSSEEAQLEHAELQEQLHRANTDTAELGIQVCALTVEKERVEEALACAVQELQDAKEAASREREGLERQVAGLQQEKESLQEKLKAAKAAAGSLPGLQAQLAQAEQRAQSLQEAAHQELNTLKFQLSAEIMDYQSRLKNAGEECKSLRGQLEEQGRQLQAAEEAVEKLKATQADMGEKLSCTSNHLAECQAAMLRKDKEGAALREDLERTQKELEKATTKIQEYYNKLCQEVTNRERNDQKMLADLDDLNRTKKYLEERLIELLRDKDALWQKSDALEFQQKLSAEERWLGDTEANHCLDCKREFSWMVRRHHCRICGRIFCYYCCNNYVLSKHGGKKERCCRACFQKLSEGPGSPDSSGSGTSQGEPSPALSPASPGPQATGGQGANTDYRPPDDAVFDIITDEELCQIQESGSSLPETPTETDSLDPNAAEQDTTSTSLTPEDTEDMPVGQDSEICLLKSGELMIKVPLTVDEIASFGEGSRELFVRSSTYSLIPITVAEAGLTISWVFSSDPKSISFSVVFQEAEDTPLDQCKVLIPTTRCNSHKENIQGQLKVRTPGIYMLIFDNTFSRFVSKKVFYHLTVDRPVIYDGSDFL

binding (HA-tagged ATG13 (human)): binds
B4: endogenous C9ORF72 (protein, UniProt Q96LT7 1-481)
chain: MSTLCPPPSPAVAKTEIALSGKSPLLAATFAYWDNILGPRVRHIWAPKTEQVLLSDGEITFLANHTLNGEILRNAESGAIDVKFFVLSEKGVIIVSLIFDGNWNGDRSTYGLSIILPQTELSFYLPLHRVCVDRLTHIIRKGRIWMHKERQENVQKIILEGTERMEDQGQSIIPMLTGEVIPVMELLSSMKSHSVPEEIDIADTVLNDDDIGDSCHEGFLLNAISSHLQTCGCSVVVGSSAEKVNKIVRTLCLFLTPAERKCSRLCEAESSFKYESGLFVQGLLKDSTGSFVLPFRQVMYAPYPTTHIDVDVNTVKQMPPCHEHIYNQRRYMRSELTAFWRATSEEDMAQDTIIYTDESFTPDLNIFQDVLHRDTLVKAFLDQVFQLKPGLSLRSTFLAQFLLVLHRKALTLIKYIEDDTQKGKKPFKSLRNLKIDLDLTAEGDLNIIMALAEKIKPGLHSFIFGRPFYTSVQERDVLMTF

binding (HA-tagged ATG13 (human)): binds
B5: endogenous SMCR8 (protein, UniProt Q8TEV9 1-937)
chain: MISAPDVVAFTKEEEYEEEPYNEPALPEEYSVPLFPFASQGANPWSKLSGAKFSRDFILISEFSEQVGPQPLLTIPNDTKVFGTFDLNYFSLRIMSVDYQASFVGHPPGSAYPKLNFVEDSKVVLGDSKEGAFAYVHHLTLYDLEARGFVRPFCMAYISADQHKIMQQFQELSAEFSRASECLKTGNRKAFAGELEKKLKDLDYTRTVLHTETEIQKKANDKGFYSSQAIEKANELASVEKSIIEHQDLLKQIRSYPHRKLKGHDLCPGEMEHIQDQASQASTTSNPDESADTDLYTCRPAYTPKLIKAKSTKCFDKKLKTLEELCDTEYFTQTLAQLSHIEHMFRGDLCYLLTSQIDRALLKQQHITNFLFEDFVEVDDRMVEKQESIPSKPSQDRPPSSSLEECPIPKVLISVGSYKSSVESVLIKMEQELGDEEYKEVEVTELSSFDPQENLDYLDMDMKGSISSGESIEVLGTEKSTSVLSKSDSQASLTVPLSPQVVRSKAVSHRTISEDSIEVLSTCPSEALIPDDFKASYPSAINEEESYPDGNEGAIRFQASISPPELGETEEGSIENTPSQIDSSCCIGKESDGQLVLPSTPAHTHSDEDGVVSSPPQRHRQKDQGFRVDFSVENANPSSRDNSCEGFPAYELDPSHLLASRDISKTSLDNYSDTTSYVSSVASTSSDRIPSAYPAGLSSDRHKKRAGQNALKFIRQYPFAHPAIYSLLSGRTLVVLGEDEAIVRKLVTALAIFVPSYGCYAKPVKHWASSPLHIMDFQKWKLIGLQRVASPAGAGTLHALSRYSRYTSILDLDNKTLRCPLYRGTLVPRLADHRTQIKRGSTYYLHVQSMLTQLCSKAFLYTFCHHLHLPTHDKETEELVASRQMSFLKLTLGLVNEDVRVVQYLAELLKLHYMQESPGTSHPMLRFDYVPSFLYKI
